These are yes or no findings as the source states them, for the method shown. For part of these data: Binding seen in cells or lysates may run through a third protein.

By UniProt entry, the sequences of proteins in these tests, tags left out. Where a name states a change or a piece, a line headed by the entry shows the natural chain unless it says otherwise.
UniProt O14893: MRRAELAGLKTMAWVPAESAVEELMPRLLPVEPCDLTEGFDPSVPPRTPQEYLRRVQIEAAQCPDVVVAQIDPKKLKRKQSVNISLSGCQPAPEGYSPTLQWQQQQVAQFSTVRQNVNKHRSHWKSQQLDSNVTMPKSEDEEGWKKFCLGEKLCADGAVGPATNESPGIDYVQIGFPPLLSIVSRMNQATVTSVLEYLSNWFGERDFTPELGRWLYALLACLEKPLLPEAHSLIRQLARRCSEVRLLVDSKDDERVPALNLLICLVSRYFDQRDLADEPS
UniProt Q9UHI6: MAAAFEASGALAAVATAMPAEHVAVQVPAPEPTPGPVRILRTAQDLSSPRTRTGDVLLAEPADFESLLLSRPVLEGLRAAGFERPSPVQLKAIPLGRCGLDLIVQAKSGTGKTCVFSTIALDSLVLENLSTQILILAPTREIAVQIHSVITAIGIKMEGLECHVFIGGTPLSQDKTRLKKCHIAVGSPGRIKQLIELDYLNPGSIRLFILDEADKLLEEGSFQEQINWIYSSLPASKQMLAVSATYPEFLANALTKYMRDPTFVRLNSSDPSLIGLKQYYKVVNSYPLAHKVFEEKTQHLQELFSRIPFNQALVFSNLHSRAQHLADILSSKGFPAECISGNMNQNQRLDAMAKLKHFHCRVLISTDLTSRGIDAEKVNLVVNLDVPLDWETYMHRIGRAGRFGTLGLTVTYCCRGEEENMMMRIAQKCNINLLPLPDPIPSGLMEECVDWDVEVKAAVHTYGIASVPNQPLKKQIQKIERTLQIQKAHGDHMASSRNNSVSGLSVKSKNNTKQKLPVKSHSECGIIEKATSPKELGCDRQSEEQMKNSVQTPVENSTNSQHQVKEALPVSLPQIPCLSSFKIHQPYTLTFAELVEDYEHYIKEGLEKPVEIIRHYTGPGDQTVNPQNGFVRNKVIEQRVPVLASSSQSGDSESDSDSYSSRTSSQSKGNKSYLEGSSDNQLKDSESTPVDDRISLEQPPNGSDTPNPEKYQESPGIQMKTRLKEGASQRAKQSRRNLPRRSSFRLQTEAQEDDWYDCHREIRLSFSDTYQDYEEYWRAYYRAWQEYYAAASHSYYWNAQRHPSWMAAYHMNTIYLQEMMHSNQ
UniProt Q13838: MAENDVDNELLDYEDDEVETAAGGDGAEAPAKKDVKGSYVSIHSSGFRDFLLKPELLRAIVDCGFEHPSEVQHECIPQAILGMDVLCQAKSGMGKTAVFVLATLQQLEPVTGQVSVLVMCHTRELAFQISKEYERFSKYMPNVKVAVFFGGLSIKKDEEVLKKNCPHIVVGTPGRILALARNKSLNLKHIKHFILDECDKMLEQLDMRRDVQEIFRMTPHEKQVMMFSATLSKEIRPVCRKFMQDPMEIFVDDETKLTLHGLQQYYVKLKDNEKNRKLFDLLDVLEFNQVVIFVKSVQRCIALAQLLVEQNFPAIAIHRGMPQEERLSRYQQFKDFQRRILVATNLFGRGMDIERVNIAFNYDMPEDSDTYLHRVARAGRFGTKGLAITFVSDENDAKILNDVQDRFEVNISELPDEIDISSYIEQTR

Data on three substances can be found in article PMC11417407.

Experiment [1] addresses GST-PHAX (UniProt Q9H814). Kind of experiment: pull-down; GST or GST-PHAX with HeLa nuclear extracts (HNEs), RNase A, with or without 0.5 mM ATP, 20 mM creatine phosphate, 2 mM MgCl2, 30°C 20 min; Glutathione Sepharose, washes in RSB100N; western blotting; only the target purified.
Experiment [2] has as its target GST-PHAX (UniProt Q9H814). The experiment in a line: pull-down; purified GST-PHAX and purified FLAG-helicase mixed in the presence of HNEs, 0.5 mM ATP (or without), 20 mM creatine phosphate, 2 mM MgCl2, RNase A, 30°C 20 min; Glutathione Sepharose; anti-FLAG western blotting; both purified. A general note: In western blotting, separated proteins are transferred to a membrane and probed.

As to “GEMIN2 (endogenous, HeLa nuclear extract) (from UniProt O14893 1-280)”, the binding result with GST-PHAX [1] is “no binding”. The same measure, in the same setting: as for “GEMIN3/DDX20 (endogenous, HeLa nuclear extract) (from UniProt Q9UHI6 1-824)”, the entry is “no binding”. Regarding “FLAG-UAP56 K95E mutant (from UniProt Q13838 1-428) (enzyme)”, in the experiment with GST-PHAX [2], the binding result is on record as “no binding”.
